The inconclusive results got no clear call from the source; some entries with a clear call stand among them for comparison. Where the call is inconclusive, the potency comes from a doubtful curve fit. Calls of active or inactive are those of the source. Rule for the calls: active = hit-call score of the fitted dose curve at least 0.9, where 1 is the maximum; inconclusive = response in the unintended direction; inactive = score below 0.9.
Key:
[1] = VALA_MIGHUV2_CellCount: Viability Assessment in the VALA Sciences human Umbilical Vein Endothelial Cell Migration (MIGHUV) Assay, Area of Scratch Wound after Recovery (AID 2284314)
Summary of the method: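 Viability read-out: Hoechst-stained nuclei counted by fluorescence imaging after a 24 h recovery period in fixed, scratched HUVEC plates. Compound was dosed within 30 min of scratching at six concentrations (triplicate); DMSO at 0.1 % served as baseline.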

[2] = VALA_MIGHUV2_WoundArea: VALA Sciences human Umbilical Vein Endothelial Cell Migration (MIGHUV) Assay, Area of Scratch Wound after Recovery (AID 2284316)
Summary of the method: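 Wound-area endpoint read by fluorescence imaging of Hoechst-stained nuclei after a 24 h recovery period following scratch of HUVEC monolayers (9000 cells/well). Chemicals dosed within 30 min post-scratch, triplicate 6-point series, 0.1% DMSO vehicle; Cytochalasin D positive control.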

[3] = CCTE_Mundy_HCI_iCellGluta_NOG_NeuriteLength: CCTE's Neurite Outgrowth Assay in iCellGluta cells for Neurite Length, Mundy Lab (AID 2284318)
Summary of the method: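 Automated high-content imaging of betaIII-tubulin (Alexa Fluor-488) and Hoechst-stained cells gave neurite length, normalized to the DMSO baseline.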

[4] = VALA_TUBIPS_Agonist_TubuleLength: VALA Sciences human iPS-derived Endothelial Tubule Formation (TUBIPS) Agonism Assay (AID 2284311)
Summary of the method: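 Agonist-mode readout is the gain in imaged tubule length versus DMSO baseline. It was measured by fluorescence high-content imaging 72 h after dosing human iPSC-derived endothelial cells.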

[5] = VALA_TUBIPS_Antagonist_TubuleLength: VALA Sciences human iPS-derived Endothelial Tubule Formation (TUBIPS) Antagonist Assay (AID 2284313)
Summary of the method: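 Tubule length was quantified by high-content imaging of CD31- and nuclear-stained cells, with 0.1% DMSO as neutral and 100 uM suramin as inhibition control. Compounds were applied for 3 days, in 10 ng/ml VEGF, to cultures pre-grown 3 days.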

[6] = VALA_TUBHUV_Antagonist_CellCount: Viability Assessment in the VALA Sciences human Umbilical Vein Endothelial Tubule Formation (TUBHUV) Antagonism Assay (AID 2284310)
Procedure: VALA_TUBHUV_Antagonist is a cell-based, multiplexed assay that uses human umbilical vein endothelial cells (HUVEC). Measurements were taken 72 hours after chemical dosing in a 96-well plate.VALA_TUBHUV_Antagonist_CellCount is the one of two assay components measured from the VALA_TUBHUV_Antagonist assay. It is designed to make measurements of viability, a form of viability reporter, as detected with fluorescence intensity signals by HCS Fluorescent Imaging technology. Data from the assay component VALA_TUBHUV_Antagonist_CellCount was analyzed at the endpoint, VALA_TUBHUV_Antagonist_CellCount, in the positive analysis fitting direction relative to DMSO as the negative control and baseline of activity. Using a type of viability reporter, loss-of-signal activity can be used to understand viability. To generalize the intended target to other relatable targets, this assay endpoint is annotated to the cell cycle intended target family, where the subfamily is cell count.
[…]

IYD (gene 389434) = assay: CCTE_GLTED_hIYD: CCTE's human Iodotyrosine Deiodinase (xIYD) Inhibition Assay, Great Lakes Toxicology and Ecology Division (GLTED) Lab (AID 2284317);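 note: cell-free human IYD enzyme made in baculovirus insect cells; iodide freed from monoiodotyrosine measured by cerium arsenite color change at 420 nm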
Summary of the method: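 Cell-free; baculovirus/insect-cell hIYD + MIT substrate + chemical, 3 h. Dowex column cleanup, then Ce4+/As3+ Sandell-Kolthoff read at A420 nm. Triplicate plates; normalized to 3-nitro-L-tyrosine (positive) and DMSO/NaOH (solvent).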

[7] = IUF_NPC4_neurite_area_120hr: Leibniz Research Institute for Environmental Medicine (IUF) 120-hour Neuronal Morphology Assay for Neurite Area (NPC4) (AID 2284305)
Summary of the method: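 Neurite area (pixels, nuclei excluded) of TUBB3-positive neurons from hNPC spheres differentiating 5 days under continuous exposure at 37 C, 5% CO2. High-content imaging; loss of signal versus DMSO control across 7 concentrations.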

[8] = VALA_TUBHUV_Agonist_CellCount: Viability Assessment in the VALA Sciences human Umbilical Vein Endothelial Tubule Formation (TUBHUV) Agonism Assay (AID 2284309)
Summary of the method: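 Viability endpoint by fluorescent imaging of fixed nuclear/CD31-stained HUVEC–HDF co-cultures. Readout is cell count, fitted upward against 0.1% DMSO. Compound exposure was 72 h in 10 ng/ml VEGF, after 3-day co-culture priming.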

[9] = IUF_NPC5_oligodendrocyte_differentiation_120hr: Leibniz Research Institute for Environmental Medicine (IUF) 120-hour Oligodendrocyte Differentiation Assay (NPC5) (AID 2284304);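 note: primary human fetal neural progenitor spheres plated to migrate and differentiate; share of O4-positive cells among Hoechst nuclei found by CNN image analysis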
Summary of the method: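 Primary human fetal (GW 16-19) neural progenitor spheres (0.3 mm) plated on poly-D-lysine/laminin in N2 differentiation medium, exposed from day 0 for 120 h with half-medium refresh at day 3; O4-positive cells as percent of Hoechst nuclei, CNN-identified, versus DMSO.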

SMILES: COC(=O)c1ccc(O)cc1
- AC50 [1]: inconclusive: 337 nM
- AC50 [2]: inconclusive: 378 nM

SMILES: N#CCCNCCC#N
- outcome [3]: inactive

SMILES: Oc1ccc2ccccc2c1N=Nc1ccccc1
- AC50 [4]: inconclusive: 3760 nM
- AC50 [5]: inconclusive: 238 nM
- outcome [1]: inactive

SMILES: O=c1c(O)c(-c2ccc(O)c(O)c2)oc2cc(O)cc(O)c12
- AC50 [6]: inconclusive: 40.3 nM
- AC50 [4]: inconclusive: 50000 nM
- AC50 [1]: inconclusive: 2.29 nM
- AC50 [2]: inconclusive: 50000 nM

SMILES: CSC(=O)c1cccc2nnsc12
- AC50 [3]: inconclusive: 0.527 nM

SMILES: CCCc1ccc(O)cc1
- AC50 (IYD (gene 389434)): inconclusive: 100000 nM

SMILES: O=C(c1ccc(O)cc1O)c1ccc(O)cc1O
- AC50 (IYD (gene 389434)): inconclusive: 3.2 nM

SMILES: CC1(C)S[C@@H]2[C@H](NC(=O)COc3ccccc3)C(=O)N2[C@H]1C(=O)O
- AC50 [7]: inconclusive: 10000 nM

SMILES: O=C(Nc1ccc(Cl)cc1)Nc1ccc(Cl)c(Cl)c1
- AC50 [4]: inconclusive: 74600 nM
- outcome [5]: inactive
- outcome [1]: inactive
- AC50 [2]: inconclusive: 26.4 nM

SMILES: O=C(O)Cc1cc(I)c(Oc2cc(I)c(O)c(I)c2)c(I)c1
- outcome [8]: inactive
- AC50 [6]: inconclusive: 6.86 nM
- outcome [4]: inactive
- AC50 [1]: inconclusive: 1.29 nM

SMILES: O=S(=O)(O)CCC(F)(F)C(F)(F)C(F)(F)C(F)(F)C(F)(F)C(F)(F)C(F)(F)C(F)(F)F
- AC50 [3]: inconclusive: 3.97 nM

SMILES: Cc1ccc(-c2cc(C(F)(F)F)nn2-c2ccc(S(N)(=O)=O)cc2)cc1
- outcome [8]: inactive
- AC50 [5]: inconclusive: 50000 nM
- outcome [1]: inactive

SMILES: OCCCC(F)(F)C(F)(F)C(F)(F)C(F)(F)C(F)(F)C(F)(F)C(F)(F)F
- outcome [3]: inactive

SMILES: Cc1nn(C)c(Oc2ccccc2)c1C=NOCc1ccc(C(=O)OC(C)(C)C)cc1
- outcome [9]: inactive

SMILES: CCCCCCCCOC(=O)c1cc(O)c(O)c(O)c1
- AC50 [8]: active: 76400 nM
- AC50 [6]: inconclusive: 210 nM
- AC50 [4]: inconclusive: 50000 nM
- outcome [5]: inactive
- outcome [1]: inactive
- outcome [2]: inactive

SMILES: CCCCCCCCC=O
- AC50 (IYD (gene 389434)): inconclusive: 100000 nM

SMILES: N[C@@H](Cc1cc(I)c(Oc2ccc(O)c(I)c2)c(I)c1)C(=O)O
- outcome [6]: inactive
- AC50 [1]: inconclusive: 12.3 nM
- AC50 [2]: inconclusive: 50000 nM

SMILES: CC(C)(c1ccc(O)cc1)c1ccc(O)cc1
- outcome [6]: inactive
- outcome [4]: inactive
- outcome [5]: inactive
- outcome [1]: inactive

SMILES: CC#C[C@]1(O)CC[C@H]2[C@@H]3CCC4=CC(=O)CCC4=C3[C@@H](c3ccc(N(C)C)cc3)C[C@@]21C
- outcome [7]: inactive

SMILES: CCCc1cc(=O)[nH]c(=S)[nH]1
- AC50 [6]: inconclusive: 3.28 nM
- AC50 [4]: inconclusive: 50000 nM
- outcome [5]: inactive
- AC50 [1]: inconclusive: 1.29 nM
- AC50 [2]: inconclusive: 50000 nM

SMILES: Nc1ncn([C@@H]2O[C@H](CO)[C@@H](O)[C@H]2O)c(=O)n1
- AC50 [9]: inconclusive: 17500 nM
- AC50 [3]: inconclusive: 0.704 nM

SMILES: CC(C)CCCCCCc1ccc(O)cc1
- outcome [8]: inactive
- outcome [1]: inactive
- AC50 [2]: inconclusive: 14.7 nM

SMILES: Cc1cc(C)c(C(=O)O)c(C)c1
- AC50 (IYD (gene 389434)): inconclusive: 100000 nM

SMILES: O=P(OC(CCl)CCl)(OC(CCl)CCl)OC(CCl)CCl
- AC50 [9]: active: 4150 nM
- AC50 [8]: inconclusive: 12500 nM
- AC50 [6]: inconclusive: 3220 nM
- AC50 [4]: inconclusive: 7600 nM
- AC50 [1]: inconclusive: 2.62 nM
- AC50 [2]: inconclusive: 1.29 nM
